Data as given in PubChem BioAssay AID686938 (Drosophila RNAi Screening Center, 2013).
The screen tested about 23,000 reagents; below is a random part of those with a known target gene and a result. Over the whole deposit, 75 (0.33%) got an active call. 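Raw plate signals without normalisation; calls rest on plate z-scores that were not deposited; ratio present for only 364 wells.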 Unmarked entries are inactive. The numbers tell different reagents against one gene apart. Not stated in the record: the dose of the treatment.

Assay: 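Knock-downs reducing store-operated calcium influx in Drosophila cells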 (primary screen)
Cell system: Drosophila S2R+ cells
Reagents: long dsRNA against Drosophila genes, about 0.25 µg dsRNA per well, roughly 10,000 cells
Timing: 5 days of knock-down before the calcium assay
Challenge: thapsigargin (SERCA pump blocker) to empty calcium stores; entry signal taken 4 min after adding it
Measurement: 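Duplicate raw fluo-4 intensities per well from a plate reader, at rest and four minutes after thapsigargin emptied calcium stores; entry-to-rest ratio filled for only some wells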
Direction: calcium entry signal: higher = stronger calcium signal after store depletion; entry to resting ratio: higher = more calcium entry relative to resting level; resting calcium signal: higher = higher resting calcium signal
Rule for the call: 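Hit if the duplicate-averaged plate z-score for entry over resting signal is under −3; wells with weak total dye signal (Fmax z < −2) or more than 5 off-targets removed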
Calls: active = strongly reduced calcium entry; inactive = no strong reduction

{"target gene": "CG12541", "reagent no.": 1, "calcium entry signal, replicate 1 (fluorescence units)": 3.61e7, "calcium entry signal, replicate 2 (fluorescence units)": 3.06e7, "resting calcium signal, replicate 1 (fluorescence units)": 1.58e7, "resting calcium signal, replicate 2 (fluorescence units)": 1.44e7}
{"target gene": "CG12541", "reagent no.": 2, "calcium entry signal, replicate 1 (fluorescence units)": 3.21e7, "calcium entry signal, replicate 2 (fluorescence units)": 3.69e7, "resting calcium signal, replicate 1 (fluorescence units)": 1.54e7, "resting calcium signal, replicate 2 (fluorescence units)": 1.78e7}
{"target gene": "CG44838", "reagent no.": 1, "calcium entry signal, replicate 1 (fluorescence units)": 3.43e7, "calcium entry signal, replicate 2 (fluorescence units)": 3.07e7, "resting calcium signal, replicate 1 (fluorescence units)": 2.74e7, "resting calcium signal, replicate 2 (fluorescence units)": 1.60e7}
{"target gene": "CG44838", "reagent no.": 2, "calcium entry signal, replicate 1 (fluorescence units)": 4.44e7, "calcium entry signal, replicate 2 (fluorescence units)": 4.07e7, "resting calcium signal, replicate 1 (fluorescence units)": 3.27e7, "resting calcium signal, replicate 2 (fluorescence units)": 1.77e7}
{"target gene": "brk", "reagent no.": 1, "calcium entry signal, replicate 1 (fluorescence units)": 3.45e7, "calcium entry signal, replicate 2 (fluorescence units)": 3.88e7, "resting calcium signal, replicate 1 (fluorescence units)": 1.72e7, "resting calcium signal, replicate 2 (fluorescence units)": 1.99e7}
{"target gene": "brk", "reagent no.": 2, "calcium entry signal, replicate 1 (fluorescence units)": 3.02e7, "calcium entry signal, replicate 2 (fluorescence units)": 3.41e7, "resting calcium signal, replicate 1 (fluorescence units)": 1.58e7, "resting calcium signal, replicate 2 (fluorescence units)": 1.70e7}
{"target gene": "CG10472", "reagent no.": 1, "calcium entry signal, replicate 1 (fluorescence units)": 3.46e7, "calcium entry signal, replicate 2 (fluorescence units)": 2.35e7, "resting calcium signal, replicate 1 (fluorescence units)": 2.33e7, "resting calcium signal, replicate 2 (fluorescence units)": 1.06e7}
{"target gene": "Cln7", "reagent no.": 1, "calcium entry signal, replicate 1 (fluorescence units)": 4.58e7, "calcium entry signal, replicate 2 (fluorescence units)": 3.69e7, "resting calcium signal, replicate 1 (fluorescence units)": 2.89e7, "resting calcium signal, replicate 2 (fluorescence units)": 1.66e7}
{"target gene": "CG3473", "reagent no.": 1, "calcium entry signal, replicate 1 (fluorescence units)": 4.67e7, "calcium entry signal, replicate 2 (fluorescence units)": 3.03e7, "resting calcium signal, replicate 1 (fluorescence units)": 1.99e7, "resting calcium signal, replicate 2 (fluorescence units)": 1.42e7}
{"target gene": "Jarid2", "reagent no.": 1, "calcium entry signal, replicate 1 (fluorescence units)": 4.57e7, "calcium entry signal, replicate 2 (fluorescence units)": 4.29e7, "resting calcium signal, replicate 1 (fluorescence units)": 3.21e7, "resting calcium signal, replicate 2 (fluorescence units)": 1.87e7}
{"target gene": "CG12496", "reagent no.": 1, "calcium entry signal, replicate 1 (fluorescence units)": 2.34e7, "calcium entry signal, replicate 2 (fluorescence units)": 3.79e7, "entry to resting ratio": 2, "resting calcium signal, replicate 1 (fluorescence units)": 1.17e7, "resting calcium signal, replicate 2 (fluorescence units)": 1.54e7}
{"target gene": "sqz", "reagent no.": 1, "calcium entry signal, replicate 1 (fluorescence units)": 3.89e7, "calcium entry signal, replicate 2 (fluorescence units)": 3.74e7, "resting calcium signal, replicate 1 (fluorescence units)": 4.58e7, "resting calcium signal, replicate 2 (fluorescence units)": 1.74e7}
{"target gene": "GluRIID", "reagent no.": 1, "calcium entry signal, replicate 1 (fluorescence units)": 3.71e7, "calcium entry signal, replicate 2 (fluorescence units)": 3.52e7, "resting calcium signal, replicate 1 (fluorescence units)": 4.55e7, "resting calcium signal, replicate 2 (fluorescence units)": 1.54e7}
{"target gene": "RpS8", "reagent no.": 1, "calcium entry signal, replicate 1 (fluorescence units)": 1.25e7, "calcium entry signal, replicate 2 (fluorescence units)": 1.42e7, "resting calcium signal, replicate 1 (fluorescence units)": 9.26e6, "resting calcium signal, replicate 2 (fluorescence units)": 9.97e6}
